Test results published in PMC5511174.
No constants are given. Whether binding was seen depends on the method and setting. Binding seen in cells or lysates may run through a third protein. Some entries that bind do so weakly or less than the wild type.

Amino acid sequences for entries named in this document (tags omitted).
UniProt Q5VZM2: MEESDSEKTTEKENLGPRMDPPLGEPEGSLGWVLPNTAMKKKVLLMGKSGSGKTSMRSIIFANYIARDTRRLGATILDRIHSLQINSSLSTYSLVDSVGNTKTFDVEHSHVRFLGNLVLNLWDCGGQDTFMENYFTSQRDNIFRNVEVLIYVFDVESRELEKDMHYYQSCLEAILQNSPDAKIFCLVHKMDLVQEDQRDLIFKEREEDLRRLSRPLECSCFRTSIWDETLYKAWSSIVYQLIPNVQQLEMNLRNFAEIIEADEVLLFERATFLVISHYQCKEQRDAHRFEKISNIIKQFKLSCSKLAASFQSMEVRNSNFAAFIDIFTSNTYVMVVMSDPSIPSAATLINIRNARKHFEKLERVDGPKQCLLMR
UniProt P04610: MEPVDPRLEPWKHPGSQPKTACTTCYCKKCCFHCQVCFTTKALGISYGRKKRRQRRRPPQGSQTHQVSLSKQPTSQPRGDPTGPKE
UniProt P12504: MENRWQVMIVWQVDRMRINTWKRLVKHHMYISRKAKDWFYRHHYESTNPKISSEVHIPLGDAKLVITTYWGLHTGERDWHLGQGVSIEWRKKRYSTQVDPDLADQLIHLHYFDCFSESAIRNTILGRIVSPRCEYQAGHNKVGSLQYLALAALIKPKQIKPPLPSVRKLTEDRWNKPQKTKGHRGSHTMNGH

Legend:
[1] = biological target: RagA (human (endogenous in HeLa)) (UniProt Q7L523); assay: co-IP; endogenous RagA or RagB precipitated with anti-RagA or anti-RagB on Dynabeads Protein A from 500 ug lysate of HeLa cells transfected with pNL4-3 (also pNLXX, pNLXX + pSVGag, pNLVif-); NP-40 lysis buffer (50 mM Tris HCl pH 8.0, 150 mM NaCl, 0.5 mM EDTA, 0.5% NP-40), overnight at 4 °C; Western blot for viral proteins
[2] = biological target: RagB (human (endogenous in HeLa)) (UniProt Q5VZM2); assay: as above

Substance | binding [1] | binding [2]
HIV-1 Nef (from UniProt P03406 1-206) | no binding | 
HIV-1 Tat (from UniProt P04610 1-86) | no binding | 
HIV-1 Vif (from UniProt P12504 1-192) |  | binds
